These are yes or no findings as the source states them, for the method shown. In cells and extracts the contact can be indirect. Some entries that bind do so weakly or less than the wild type.

Amino acid sequences for entries named in this document (tags omitted). A change or cut given only in a name is not applied to a line headed by its entry.
UniProt P03915: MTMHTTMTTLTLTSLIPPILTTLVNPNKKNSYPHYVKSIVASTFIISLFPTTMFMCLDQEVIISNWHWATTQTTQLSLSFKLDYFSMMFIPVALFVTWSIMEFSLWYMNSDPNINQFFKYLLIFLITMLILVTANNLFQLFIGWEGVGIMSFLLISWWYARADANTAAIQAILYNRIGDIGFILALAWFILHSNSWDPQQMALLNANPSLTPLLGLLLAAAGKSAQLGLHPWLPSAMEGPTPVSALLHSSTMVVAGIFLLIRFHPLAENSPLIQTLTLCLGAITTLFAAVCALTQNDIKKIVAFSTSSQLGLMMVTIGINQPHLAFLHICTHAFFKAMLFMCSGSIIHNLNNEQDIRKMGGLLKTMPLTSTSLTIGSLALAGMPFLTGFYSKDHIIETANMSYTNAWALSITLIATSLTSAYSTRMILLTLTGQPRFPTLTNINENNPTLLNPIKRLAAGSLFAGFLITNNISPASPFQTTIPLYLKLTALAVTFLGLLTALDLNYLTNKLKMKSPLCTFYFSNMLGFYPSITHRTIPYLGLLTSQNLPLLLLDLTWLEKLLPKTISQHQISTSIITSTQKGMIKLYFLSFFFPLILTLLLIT
UniProt P03905: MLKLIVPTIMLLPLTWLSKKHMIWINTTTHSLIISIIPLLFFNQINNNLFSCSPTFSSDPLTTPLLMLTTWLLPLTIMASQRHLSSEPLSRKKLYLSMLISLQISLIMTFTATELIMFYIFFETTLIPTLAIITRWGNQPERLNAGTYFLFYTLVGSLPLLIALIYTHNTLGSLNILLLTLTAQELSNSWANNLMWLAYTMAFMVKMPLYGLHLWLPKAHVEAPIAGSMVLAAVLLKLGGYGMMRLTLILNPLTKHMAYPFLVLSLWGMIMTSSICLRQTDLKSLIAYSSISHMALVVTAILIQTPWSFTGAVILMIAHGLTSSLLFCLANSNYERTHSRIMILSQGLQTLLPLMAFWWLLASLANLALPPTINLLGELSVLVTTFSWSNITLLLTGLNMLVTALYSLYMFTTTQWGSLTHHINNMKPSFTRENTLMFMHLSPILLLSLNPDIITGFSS
UniProt O95298: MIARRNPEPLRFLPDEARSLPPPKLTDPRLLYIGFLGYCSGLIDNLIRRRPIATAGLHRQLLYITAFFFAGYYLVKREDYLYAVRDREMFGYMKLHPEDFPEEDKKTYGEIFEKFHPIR
UniProt P03901: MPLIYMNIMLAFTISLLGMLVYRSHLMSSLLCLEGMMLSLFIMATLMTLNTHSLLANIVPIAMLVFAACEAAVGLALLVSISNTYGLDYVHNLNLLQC
UniProt P03891: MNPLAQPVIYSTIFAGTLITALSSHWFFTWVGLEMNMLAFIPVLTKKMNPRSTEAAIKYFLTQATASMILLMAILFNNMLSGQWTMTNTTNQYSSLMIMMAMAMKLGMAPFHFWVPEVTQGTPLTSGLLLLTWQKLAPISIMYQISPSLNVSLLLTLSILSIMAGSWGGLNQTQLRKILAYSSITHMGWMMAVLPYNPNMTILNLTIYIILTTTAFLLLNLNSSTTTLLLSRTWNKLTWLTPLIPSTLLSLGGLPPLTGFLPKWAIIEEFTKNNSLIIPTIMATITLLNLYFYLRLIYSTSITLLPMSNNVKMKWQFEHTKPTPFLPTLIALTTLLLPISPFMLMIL

This is an account of results in PMC6620328.

Common to all, as to assay: split reporter; split mDHFR protein complementation assay, dilution drop-test of diploid S. cerevisiae on SD agar with methotrexate, 30 °C, growth as colony intensity against the insert-less F1,2 control; ND2 variants fused to F3, partners fused to YFP-F1,2
The target of experiment [1] is ND5, YFP-F1,2 mDHFR fusion (human) (UniProt P03915).
Experiment [2] concerns the target ND4, YFP-F1,2 mDHFR fusion (human) (UniProt P03905).
The target in experiment [3] is NDUFC2, YFP-F1,2 mDHFR fusion (human) (UniProt O95298).
Experiment [4] deals with ND4L, YFP-F1,2 mDHFR fusion (human) (UniProt P03901).

For “ND2-I57M, F3 mDHFR fusion (from UniProt P03891 1-347)”, in experiment [1], the binding entry is given as “binds”.

On to “ND2-N150D, F3 mDHFR fusion (from UniProt P03891 1-347)”, for which the binding result in experiment [1] is “binds”.

“ND2 wild type (mtDNA-encoded complex I subunit ND2), F3 mDHFR fusion (from UniProt P03891 1-347)”: the binding result in experiment [1], in experiment [2], in experiment [3] and in experiment [4] was “binds” in each case.
